This is one part of the list.

Protein sequences, listed by entry. Tags and fused reporters are not part of them.
UniProt Q0JBA9, entry or part of it: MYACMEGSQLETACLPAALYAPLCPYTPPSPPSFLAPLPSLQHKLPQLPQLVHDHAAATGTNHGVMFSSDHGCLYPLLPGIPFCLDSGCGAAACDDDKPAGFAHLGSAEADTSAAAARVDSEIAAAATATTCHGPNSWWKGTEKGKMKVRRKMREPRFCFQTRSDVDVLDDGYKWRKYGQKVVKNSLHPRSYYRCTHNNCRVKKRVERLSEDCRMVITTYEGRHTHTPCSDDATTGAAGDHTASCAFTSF

The target in the test is OsWRKY34 (Oryza sativa, UniProt Q0JBA9 1-250). The test can be described thus: protein-binding microarray (RPBM); PBS, 2% BSA, 51.3 ng/ul salmon testes DNA, 50 uM zinc acetate, 200 nM TF, 25 C, 1 h; high values mean tight binding. The settings on record: protein: recombinant; tags: N-terminal polyhistidine and DsRed monomer fusion (pET32a); label: CyDye5-dUTP incorporated in the synthesized complementary strand; 3' TTTTT single-stranded linker to array surface; dsDNA, one strand shown. The procedure, abridged:
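Using Ni–NTA, transcription factors fused N-terminally to polyhistidine and DsRed were purified after expression in E. coli BL21-CodonPlus. These were incubated at 200 nM with a blocked, double-stranded custom Agilent array for 1 h at 25 °C in a buffer containing 50 µM zinc acetate, and the array was washed. The binding signal is per-feature fluorescence intensity (arbitrary units) on an Axon 4000B scanner.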
Consider “ACCTTCTTCATTTTGTTCATATATGTGCTCTGGTCCATATCGGAGTCACCTAGTGCAG”, for which the binding signal was 13100 fluorescence intensity (a.u.).
Consider “GTGTGTGCATGCTGATAGCTTGGTCTCTTGAGGATAATTGCGGAGTCACCTAGTGCAG”, for which the binding signal was 9730 fluorescence intensity (a.u.).
In the case of “ACTTCTTTCATTTACAACATATCAGCTTGGTTTCCCATTTCGGAGTCACCTAGTGCAG”, the binding signal was 8680 fluorescence intensity (a.u.).
Regarding “TCCAAGTTCCCAACAAATTACCATATTTTTTATTGCGTTTCGGAGTCACCTAGTGCAG”, the binding signal was 9010 fluorescence intensity (a.u.).
Consider “CAAGCACACGCACACGCACACCACACAGTCTACCTATACCCGGAGTCACCTAGTGCAG”, for which the binding signal is 8370 fluorescence intensity (a.u.).
For “TAGCCCACCACCGACGCCCTCGTTGACATGAAGTTTTATTCGGAGTCACCTAGTGCAG”, the binding signal is 10200 fluorescence intensity (a.u.).
For “CTTCTCTCCTTCTATTCCTTTCAGGCAATTCATCGAGCACCGGAGTCACCTAGTGCAG”, the binding signal is 10200 fluorescence intensity (a.u.).
Regarding “GCCTCTGGAAGGTACGGACCCCTTCCACTTTTGGGCCGGCCGGAGTCACCTAGTGCAG”, the binding signal was 8820 fluorescence intensity (a.u.).
With “CATGGTCGCCAACACCCTCCACGCCTGCGCCGTCCTCCTCCGGAGTCACCTAGTGCAG” the figure was 8410 fluorescence intensity (a.u.); with “GTACAACCTGTGATTCCTCCACCACTGATTCGCCCTGTTTCGGAGTCACCTAGTGCAG”, 12400 fluorescence intensity (a.u.); with “GTCTCTTCGTCGTATCCATTGCGAGAAGCTGCGCCGCATCCGGAGTCACCTAGTGCAG”, 8820 fluorescence intensity (a.u.).
Turning to “CGTGTGTGTTTCTTGGGGCTGAGCTGTTTGCTCTCCTGGTCGGAGTCACCTAGTGCAG”, the binding signal is 9440 fluorescence intensity (a.u.).
With “TTGTAGCTGATCTGTACTGTCTGATCGATTTGTATATATCCGGAGTCACCTAGTGCAG” the figure was 10400 fluorescence intensity (a.u.).
Regarding “CCACCTCACCCTCACCCGTAGTCGCCCACACGCAAACGATCGGAGTCACCTAGTGCAG”, the binding signal was 11100 fluorescence intensity (a.u.).
As for “TCCCAATCCCACCTTTCATATATCATTTGTCAAACACACCCGGAGTCACCTAGTGCAG”, the binding signal is 8840 fluorescence intensity (a.u.).
“GTGCTATTCTGTTTGTTGTGATTGCTGAATTAGATCAAGACGGAGTCACCTAGTGCAG”: the binding signal was 8250 fluorescence intensity (a.u.).
As to “TCTCTTCTTTTATTTCCTTGACGTGTGTTATAGCTCTTCTCGGAGTCACCTAGTGCAG”, the binding signal was 11900 fluorescence intensity (a.u.).
In the case of “GGATGCTCCTTCTGTGTGTCTTCTGCTGGTCTTGGTGATCCGGAGTCACCTAGTGCAG”, the binding signal was 8550 fluorescence intensity (a.u.).
As for “TCCTGCTGCTTCCACCGCGTCCTCGCCTGCCTGCCTGCCGCGGAGTCACCTAGTGCAG”, the binding signal was 9500 fluorescence intensity (a.u.).
Turning to “TCCCTTTGCTCAATTTCAGTTTCTTTTTCTTTTGCTTTGGCGGAGTCACCTAGTGCAG”, the binding signal was 8860 fluorescence intensity (a.u.).
Regarding “GTCTCGCAATTTACATGTAATATGTGTAATTGATTTTTTTCGGAGTCACCTAGTGCAG”, the binding signal is 9190 fluorescence intensity (a.u.).
For “CTCTGAAGCCTCTTCTTCTTCCTCTGATTCCTCTCTCCTTCGGAGTCACCTAGTGCAG”, the binding signal is 9080 fluorescence intensity (a.u.).
With “ACATGTCTGCTTTGTTATTCATTGGCTTGTTGGACAATACCGGAGTCACCTAGTGCAG” the figure was 9150 fluorescence intensity (a.u.); with “TTTATTTCTGGATGATAAGCTGTTCCTCTTTTTTTCAATACGGAGTCACCTAGTGCAG”, 9590 fluorescence intensity (a.u.).
Take “ACTTTTTTGTTGATGATTTTTTCAGTTGAAATTATTTAGTCGGAGTCACCTAGTGCAG”: the binding signal was 8830 fluorescence intensity (a.u.).
For the sequence “CTGTTCCTCACCACAGCTCGGTTTTGCACATCCGGTTTTCCGGAGTCACCTAGTGCAG”, the binding signal was 9270 fluorescence intensity (a.u.).
Consider “GTGGTGGTGGTGGTGCACCCGCGCGGGCATGGCGATCGGTCGGAGTCACCTAGTGCAG”, for which the binding signal was 11200 fluorescence intensity (a.u.).
As to “TAGTACGCGTGTCATCGTCGAGCTCGAGCCCATCCATCCACGGAGTCACCTAGTGCAG”, the binding signal is 10700 fluorescence intensity (a.u.).
On to “CGGTTTTAATTTTATGTTTTTGTCAAATTCTTTTTGTTTTCGGAGTCACCTAGTGCAG”, for which the binding signal is 9450 fluorescence intensity (a.u.).
As to “TATTTGGTTCTTGTACAATGTTTACTCTGAAATTCAGATTCGGAGTCACCTAGTGCAG”, the binding signal was 9780 fluorescence intensity (a.u.).
Turning to “TACGACACTATTTATTTTCATACTTTGACCACTTGTCTCTCGGAGTCACCTAGTGCAG”, the binding signal is 12100 fluorescence intensity (a.u.).
In the case of “TCAGCCTCGATCTTGCAAGTTGATCCTATCATGATCATCCCGGAGTCACCTAGTGCAG”, the binding signal is 9500 fluorescence intensity (a.u.).
Turning to “ATTAGTATATCCCTTGTAAGCCGCACGGGGAGGGTGCGACCGGAGTCACCTAGTGCAG”, the binding signal is 9310 fluorescence intensity (a.u.).
Turning to “ATATACTCCGTTTTTTTATTTGATGTTTCCGACACGATTGCGGAGTCACCTAGTGCAG”, the binding signal is 8750 fluorescence intensity (a.u.).
“TACAACAACATGCCTTTTTACTTATGACCCTGATGGATATCGGAGTCACCTAGTGCAG”: the binding signal was 9020 fluorescence intensity (a.u.).
Turning to “AATCACACGGTCATGTTGTAGGTCTTCTCTTCTCCACCCACGGAGTCACCTAGTGCAG”, the binding signal was 8740 fluorescence intensity (a.u.).
With “CCTCTCTCTCTCTCTCACACTGACGACGGCGAGGGCGGGACGGAGTCACCTAGTGCAG”, the binding signal was 8220 fluorescence intensity (a.u.).
Regarding “GTAACAATATTCAACTTGCTTCAAATCAAATACTCCTCTTCGGAGTCACCTAGTGCAG”, the binding signal was 8680 fluorescence intensity (a.u.).
Consider “GATTCGTATTCGCTCCGTATTTGTATTCGATAATATTCGACGGAGTCACCTAGTGCAG”, for which the binding signal was 9180 fluorescence intensity (a.u.).
For “TGAAATTTCTACTGTCATGCTTCCTTGTCCCATTACTACACGGAGTCACCTAGTGCAG” the value was 11900 fluorescence intensity (a.u.).
As to “AGTTCATTTCCTCAAAATTTCTGTAAAATTTATCCATTTCCGGAGTCACCTAGTGCAG”, the binding signal is 10700 fluorescence intensity (a.u.).
Regarding “ACTTCTTTTATTTTTTTTCTCCGTGTGGTGGTGGTCTGGCCGGAGTCACCTAGTGCAG”, the binding signal was 10100 fluorescence intensity (a.u.).
